Data on 14 targets can be found in the supplement of paper PMC10849652.

Amino acid sequences for entries named in this document (tags omitted). A change or cut given only in a name is not applied to a line headed by its entry.
UniProt Q8IYB3: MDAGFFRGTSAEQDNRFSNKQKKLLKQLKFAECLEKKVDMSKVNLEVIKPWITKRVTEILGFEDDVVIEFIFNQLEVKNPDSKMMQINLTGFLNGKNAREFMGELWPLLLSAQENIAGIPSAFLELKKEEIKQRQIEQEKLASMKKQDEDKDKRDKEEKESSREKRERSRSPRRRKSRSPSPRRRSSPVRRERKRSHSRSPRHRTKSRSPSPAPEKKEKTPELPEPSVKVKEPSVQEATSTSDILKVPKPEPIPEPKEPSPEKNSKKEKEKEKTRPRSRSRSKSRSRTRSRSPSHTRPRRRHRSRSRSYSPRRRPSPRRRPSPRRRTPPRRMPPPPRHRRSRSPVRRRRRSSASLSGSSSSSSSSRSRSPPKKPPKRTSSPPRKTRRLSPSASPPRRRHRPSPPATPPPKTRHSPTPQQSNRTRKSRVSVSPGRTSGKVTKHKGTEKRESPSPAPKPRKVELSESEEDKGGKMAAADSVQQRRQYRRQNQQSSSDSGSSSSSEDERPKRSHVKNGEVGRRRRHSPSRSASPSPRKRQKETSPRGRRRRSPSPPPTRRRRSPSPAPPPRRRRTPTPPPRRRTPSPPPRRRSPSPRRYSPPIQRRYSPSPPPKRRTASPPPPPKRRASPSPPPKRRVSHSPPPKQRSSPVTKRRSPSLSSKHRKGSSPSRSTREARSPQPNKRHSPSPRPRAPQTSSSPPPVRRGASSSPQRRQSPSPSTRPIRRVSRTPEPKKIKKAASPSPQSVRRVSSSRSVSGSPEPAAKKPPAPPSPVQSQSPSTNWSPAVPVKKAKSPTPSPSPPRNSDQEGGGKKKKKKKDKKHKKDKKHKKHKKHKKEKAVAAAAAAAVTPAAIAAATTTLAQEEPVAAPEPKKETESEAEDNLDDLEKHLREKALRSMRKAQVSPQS
UniProt Q01130: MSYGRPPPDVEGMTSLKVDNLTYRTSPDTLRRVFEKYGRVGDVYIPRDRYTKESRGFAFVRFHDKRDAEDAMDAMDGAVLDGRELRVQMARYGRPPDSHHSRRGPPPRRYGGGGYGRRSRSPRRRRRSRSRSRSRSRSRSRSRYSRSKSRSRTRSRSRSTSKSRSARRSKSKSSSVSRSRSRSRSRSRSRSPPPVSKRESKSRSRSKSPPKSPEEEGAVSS
UniProt Q16629: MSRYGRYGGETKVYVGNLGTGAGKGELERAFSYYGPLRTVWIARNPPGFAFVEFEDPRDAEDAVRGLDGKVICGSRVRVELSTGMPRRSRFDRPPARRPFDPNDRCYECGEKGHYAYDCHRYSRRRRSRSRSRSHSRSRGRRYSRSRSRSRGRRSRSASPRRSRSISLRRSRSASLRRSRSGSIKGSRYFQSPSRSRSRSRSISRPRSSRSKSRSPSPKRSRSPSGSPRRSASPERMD
UniProt Q9BVQ7: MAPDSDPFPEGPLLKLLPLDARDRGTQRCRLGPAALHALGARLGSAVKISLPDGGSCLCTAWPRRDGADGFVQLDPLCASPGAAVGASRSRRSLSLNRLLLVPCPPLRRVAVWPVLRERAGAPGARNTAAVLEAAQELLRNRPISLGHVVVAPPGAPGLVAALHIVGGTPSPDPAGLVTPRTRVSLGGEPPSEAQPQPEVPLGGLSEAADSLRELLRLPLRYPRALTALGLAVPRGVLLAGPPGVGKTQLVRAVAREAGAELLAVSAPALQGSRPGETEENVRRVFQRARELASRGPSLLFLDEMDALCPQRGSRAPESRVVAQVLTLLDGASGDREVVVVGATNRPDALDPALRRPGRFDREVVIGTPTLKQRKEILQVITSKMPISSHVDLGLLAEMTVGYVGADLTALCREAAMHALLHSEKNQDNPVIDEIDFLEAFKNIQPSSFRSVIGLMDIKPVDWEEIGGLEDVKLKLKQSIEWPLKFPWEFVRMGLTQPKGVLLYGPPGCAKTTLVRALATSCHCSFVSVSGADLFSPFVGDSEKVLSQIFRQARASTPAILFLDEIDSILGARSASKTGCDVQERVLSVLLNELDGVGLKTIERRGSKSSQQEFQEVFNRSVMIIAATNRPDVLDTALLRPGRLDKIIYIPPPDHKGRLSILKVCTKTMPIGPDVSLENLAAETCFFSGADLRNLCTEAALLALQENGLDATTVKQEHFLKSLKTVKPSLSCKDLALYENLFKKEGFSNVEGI
UniProt Q8N3U4: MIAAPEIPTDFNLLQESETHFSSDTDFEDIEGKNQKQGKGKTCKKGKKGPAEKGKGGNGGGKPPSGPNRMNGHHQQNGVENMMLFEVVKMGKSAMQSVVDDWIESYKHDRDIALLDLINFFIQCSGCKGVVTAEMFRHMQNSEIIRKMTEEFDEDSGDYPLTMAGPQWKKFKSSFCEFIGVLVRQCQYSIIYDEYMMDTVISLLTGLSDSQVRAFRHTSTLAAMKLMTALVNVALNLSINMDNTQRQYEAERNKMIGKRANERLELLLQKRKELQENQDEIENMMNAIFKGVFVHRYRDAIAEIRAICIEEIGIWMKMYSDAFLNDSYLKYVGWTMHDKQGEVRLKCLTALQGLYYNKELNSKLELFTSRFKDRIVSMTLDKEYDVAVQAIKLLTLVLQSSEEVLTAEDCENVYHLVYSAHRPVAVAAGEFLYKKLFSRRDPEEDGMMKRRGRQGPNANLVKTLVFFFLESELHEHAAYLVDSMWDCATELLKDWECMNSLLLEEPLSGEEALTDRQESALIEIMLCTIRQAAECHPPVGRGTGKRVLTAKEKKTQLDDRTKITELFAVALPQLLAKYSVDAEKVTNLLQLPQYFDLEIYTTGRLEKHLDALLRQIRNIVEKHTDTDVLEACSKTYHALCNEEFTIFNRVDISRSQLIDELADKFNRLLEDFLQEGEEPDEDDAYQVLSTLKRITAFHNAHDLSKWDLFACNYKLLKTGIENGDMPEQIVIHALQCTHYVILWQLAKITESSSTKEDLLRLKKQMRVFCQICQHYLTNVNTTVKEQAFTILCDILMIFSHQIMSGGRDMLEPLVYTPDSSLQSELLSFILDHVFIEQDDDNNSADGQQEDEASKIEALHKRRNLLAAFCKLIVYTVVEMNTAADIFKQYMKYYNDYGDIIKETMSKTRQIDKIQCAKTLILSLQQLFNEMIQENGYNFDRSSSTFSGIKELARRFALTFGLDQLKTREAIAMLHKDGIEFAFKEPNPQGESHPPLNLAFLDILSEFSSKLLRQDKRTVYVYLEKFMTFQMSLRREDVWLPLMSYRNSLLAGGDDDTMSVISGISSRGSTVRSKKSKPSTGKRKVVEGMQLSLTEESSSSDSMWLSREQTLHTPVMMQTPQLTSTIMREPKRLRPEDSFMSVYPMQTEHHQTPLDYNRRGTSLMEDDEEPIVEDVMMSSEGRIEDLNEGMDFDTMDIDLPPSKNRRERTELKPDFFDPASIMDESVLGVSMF
UniProt P35270: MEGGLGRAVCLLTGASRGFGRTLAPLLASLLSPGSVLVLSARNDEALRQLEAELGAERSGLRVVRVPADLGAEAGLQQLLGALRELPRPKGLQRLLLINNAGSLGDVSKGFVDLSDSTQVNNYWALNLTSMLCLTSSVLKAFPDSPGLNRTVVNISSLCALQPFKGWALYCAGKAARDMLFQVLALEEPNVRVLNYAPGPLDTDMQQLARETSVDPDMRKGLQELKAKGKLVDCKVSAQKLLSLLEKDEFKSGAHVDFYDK
UniProt P61011: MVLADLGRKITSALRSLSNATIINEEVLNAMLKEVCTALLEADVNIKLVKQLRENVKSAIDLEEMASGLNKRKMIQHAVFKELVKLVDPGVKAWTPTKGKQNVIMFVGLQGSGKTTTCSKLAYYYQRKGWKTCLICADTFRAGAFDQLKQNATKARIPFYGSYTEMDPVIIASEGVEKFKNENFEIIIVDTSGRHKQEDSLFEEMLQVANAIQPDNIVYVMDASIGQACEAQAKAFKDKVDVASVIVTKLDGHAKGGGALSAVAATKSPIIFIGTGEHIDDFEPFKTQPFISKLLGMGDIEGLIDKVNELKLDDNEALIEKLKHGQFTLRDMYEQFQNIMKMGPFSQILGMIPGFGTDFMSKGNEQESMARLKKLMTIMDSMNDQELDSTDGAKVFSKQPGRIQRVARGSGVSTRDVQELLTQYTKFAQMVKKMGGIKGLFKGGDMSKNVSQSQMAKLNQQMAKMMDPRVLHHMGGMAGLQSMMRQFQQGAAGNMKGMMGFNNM
UniProt P49458: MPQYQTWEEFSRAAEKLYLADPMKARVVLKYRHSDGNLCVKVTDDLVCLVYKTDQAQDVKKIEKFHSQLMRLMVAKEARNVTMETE
UniProt Q9HBM1: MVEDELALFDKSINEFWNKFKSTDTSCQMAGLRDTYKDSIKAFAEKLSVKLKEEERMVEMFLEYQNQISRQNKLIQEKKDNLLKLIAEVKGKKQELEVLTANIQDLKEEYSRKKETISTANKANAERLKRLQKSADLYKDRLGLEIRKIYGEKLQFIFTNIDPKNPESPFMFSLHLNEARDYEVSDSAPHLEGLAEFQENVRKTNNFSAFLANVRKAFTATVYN
UniProt O00506, whole entry, looked up: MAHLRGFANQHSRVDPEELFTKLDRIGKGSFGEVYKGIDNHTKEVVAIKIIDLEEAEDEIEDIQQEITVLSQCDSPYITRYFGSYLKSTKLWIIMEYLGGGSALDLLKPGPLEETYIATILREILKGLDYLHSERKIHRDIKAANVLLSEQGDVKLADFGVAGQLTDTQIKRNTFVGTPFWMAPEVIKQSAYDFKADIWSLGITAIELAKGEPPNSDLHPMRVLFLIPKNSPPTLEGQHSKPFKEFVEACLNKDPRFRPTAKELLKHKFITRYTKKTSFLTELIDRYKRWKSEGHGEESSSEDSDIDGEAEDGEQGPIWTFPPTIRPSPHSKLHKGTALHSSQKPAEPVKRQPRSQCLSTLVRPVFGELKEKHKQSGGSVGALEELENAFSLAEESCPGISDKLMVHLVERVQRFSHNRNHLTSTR
UniProt P10124: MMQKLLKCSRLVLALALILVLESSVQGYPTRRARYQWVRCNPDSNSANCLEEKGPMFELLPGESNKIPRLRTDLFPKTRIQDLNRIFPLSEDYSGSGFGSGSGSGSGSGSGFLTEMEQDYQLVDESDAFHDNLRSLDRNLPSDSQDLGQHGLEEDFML
UniProt Q04837: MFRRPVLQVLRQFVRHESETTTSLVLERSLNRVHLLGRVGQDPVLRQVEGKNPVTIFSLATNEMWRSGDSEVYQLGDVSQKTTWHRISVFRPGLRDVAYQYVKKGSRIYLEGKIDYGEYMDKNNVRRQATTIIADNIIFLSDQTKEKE
UniProt P43307: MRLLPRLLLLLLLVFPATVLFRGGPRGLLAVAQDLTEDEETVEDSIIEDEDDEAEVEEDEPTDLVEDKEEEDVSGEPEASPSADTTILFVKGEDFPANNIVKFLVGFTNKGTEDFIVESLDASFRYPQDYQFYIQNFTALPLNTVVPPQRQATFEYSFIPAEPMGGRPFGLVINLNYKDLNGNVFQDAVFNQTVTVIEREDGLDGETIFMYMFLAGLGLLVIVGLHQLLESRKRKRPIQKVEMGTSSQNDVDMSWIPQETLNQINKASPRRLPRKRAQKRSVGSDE
UniProt Q8TCT8: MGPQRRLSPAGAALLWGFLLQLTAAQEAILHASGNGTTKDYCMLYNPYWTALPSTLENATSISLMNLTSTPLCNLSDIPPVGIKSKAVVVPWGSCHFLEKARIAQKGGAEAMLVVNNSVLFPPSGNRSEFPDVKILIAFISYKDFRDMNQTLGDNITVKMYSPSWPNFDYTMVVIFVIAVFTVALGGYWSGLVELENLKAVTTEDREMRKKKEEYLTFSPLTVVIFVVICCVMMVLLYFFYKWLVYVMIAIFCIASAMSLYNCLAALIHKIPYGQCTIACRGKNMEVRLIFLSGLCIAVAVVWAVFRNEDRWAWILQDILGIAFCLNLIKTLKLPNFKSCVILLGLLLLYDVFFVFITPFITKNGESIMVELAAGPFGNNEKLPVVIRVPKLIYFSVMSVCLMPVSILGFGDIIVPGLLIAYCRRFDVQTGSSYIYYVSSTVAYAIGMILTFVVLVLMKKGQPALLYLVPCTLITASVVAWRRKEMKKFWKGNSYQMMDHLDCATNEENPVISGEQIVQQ

The other results are listed elsewhere or left out.

What all share (assay): log2 fold change, soluble protein after heating vs DMSO (PISA); higher = thermal stabilisation; K562 cells, 10 uM, 30 min; active = over 0.2 and 3.5 SD of the protein, either way, in both replicates (recomputed)
Compound in experiment [1]: NC(=O)Nc1cc(-c2cccc(F)c2)sc1C(=O)N[C@H]1CCCNC1
Put shortly:
(§1)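 K562 cells at 2×10^6 cells/mL were treated for 30 min with 10 μM compound, and aliquots were heated for 3 min over 48°C-58°C before pooling. Extraction used PBS with 0.5% NP-40 at 4°C, and soluble protein was the supernatant after 21,000xg for 90 min, measured by TMTpro 16plex LC-MS/MS with channel sums equalised. Thermal stability values, relative to control samples and from duplicates, are log2 fold changes.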

Compound in experiment [2]: NC(=O)c1cnc(N[C@@H]2CCCC[C@@H]2N)nc1Nc1cccc(-n2nccn2)c1
Put shortly: as §1

Compound in experiment [3]: NC1(c2ccc(-c3nc4ccn5c(=O)[nH]nc5c4cc3-c3ccccc3)cc2)CCC1
Put shortly:
as §1

Compound in experiment [4]: NCC(=O)Nc1ccc(-n2nc(C(F)(F)F)cc2-c2ccc3c(ccc4ccccc43)c2)cc1
Put shortly:
as §1

Compound in the next experiment: Nc1ccccc1NC(=O)c1ccc(CNC(=O)OCc2cccnc2)cc1 [entinostat]
Put shortly:
as §1

Compound in another experiment: O=C(CCCCCCC(=O)Nc1ccccc1)NO [vorinostat]
Put shortly: as §1

Compound in a further experiment: O=C(CCCCCCNC(=O)c1cnc(N(c2ccccc2)c2ccccc2Cl)nc1)NO [citarinostat]
In outline:
as §1

Compound in another experiment: O=C(O)c1ccc2c(c1)nc(Nc1cccc(Cl)c1)c1ccncc12 [silmitasertib]
Put shortly: as §1

Compound in experiment [5]: O=C1NC(=O)C(c2cnc3ccccn23)=C1c1cn2c3c(cc(F)cc13)CN(C(=O)N1CCCCC1)CC2
In outline: as §1

Compound in experiment [6]: c1cc(OCCN2CCCCC2)cc(-c2n[nH]c3ccc(-c4nnc[nH]4)cc23)c1
Put shortly:
as §1

Compound in another experiment: c1cn2cc(-c3ccc4cn[nH]c4c3)nc(Nc3ccc(N4CCOCC4)cc3)c2n1 [entospletinib]
Put shortly:
as §1

In the case of SRRM1 (UniProt Q8IYB3), the log2 fold change in [1] is inactive: -0.024; in [2], inactive: 0.045; in [3] it was inactive: 0.035; in [4], inactive: -0.012; with entinostat, inactive: -0.054; in the experiment with vorinostat, inactive: -0.023. The log2 fold change was inactive: -0.091 in the experiment with citarinostat; inactive: -0.023 in the experiment with silmitasertib; inactive: 0.035 in experiment [5]; inactive: -0.235 in experiment [6]; inactive: 0.092 with entospletinib.
Consider SRSF2 (UniProt Q01130), for which the log2 fold change is inactive: -0.056 in [1]; inactive: 0.04 in experiment [2]; inactive: 0.139 in [3]; inactive: -0.006 in experiment [4]; inactive: -0.067 with entinostat; inactive: -0.057 with vorinostat. Also, the log2 fold change with citarinostat was inactive: -0.04; in the experiment with silmitasertib it was inactive: -0.062; in [5], inactive: 0.059; in experiment [6], inactive: -0.081.
With SRSF7 (UniProt Q16629), the log2 fold change in experiment [1] is inactive: 0; in [2] it was inactive: 0.13; in experiment [3], inactive: 0.525; in experiment [4], inactive: 0.027; with entinostat it was inactive: -0.079; with vorinostat it was inactive: 0. Besides, the log2 fold change with citarinostat was inactive: -0.132; with silmitasertib, inactive: -0.144; in experiment [5], inactive: 0.357; in experiment [6], inactive: -0.33.
Turning to SPATA5L1 (UniProt Q9BVQ7), the log2 fold change in experiment [1] is inactive: 0.003; in experiment [2], inactive: -0.048; in [3], inactive: 0.039; in experiment [4], inactive: -0.013; with entinostat, inactive: -0.054; with vorinostat it was inactive: -0.036. The log2 fold change was inactive: -0.046 in the experiment with citarinostat; inactive: 0.007 in the experiment with silmitasertib; inactive: -0.017 in experiment [5]; inactive: -0.019 in [6]; inactive: -0.005 in the experiment with entospletinib.
As to STAG2 (UniProt Q8N3U4), the log2 fold change in experiment [1] was inactive: -0.024; in experiment [2], inactive: -0.003; in [3], inactive: -0.039; in experiment [4] it was inactive: -0.03; with entinostat, inactive: 0.013; in the experiment with vorinostat it was inactive: 0.076. Moreover, the log2 fold change is inactive: 0.081 with citarinostat; inactive: -0.024 with silmitasertib; inactive: -0.065 in experiment [5]; inactive: -0.115 in experiment [6]; inactive: -0.011 with entospletinib.
As to SPR (UniProt P35270), the log2 fold change in [1] was inactive: 0.006; in experiment [2] it was inactive: 0.13; in experiment [3] it was active: 0.491; in experiment [4], inactive: -0.002; with entinostat it was inactive: -0.049; with vorinostat it was inactive: -0.154. Further, the log2 fold change is inactive: -0.041 in the experiment with citarinostat, inactive: 0.004 in the experiment with silmitasertib, inactive: 0.176 in [5] and inactive: 0.066 in experiment [6].
With SRP54 (UniProt P61011), the log2 fold change in [1] was inactive: -0.017; in [2], inactive: -0.051; in experiment [3], inactive: -0.106; in [4], inactive: -0.075; with entinostat, inactive: 0.051; with vorinostat it was inactive: 0.026. For the same target, the log2 fold change with citarinostat is inactive: 0.054; with silmitasertib it was inactive: 0; in experiment [5], inactive: -0.039; in experiment [6], inactive: -0.048; with entospletinib, inactive: 0.
As to SRP9 (UniProt P49458), the log2 fold change in [1] was inactive: 0.005; in experiment [2], inactive: 0.044; in [3], inactive: 0.243; in experiment [4] it was inactive: 0.12; with entinostat, inactive: -0.101; in the experiment with vorinostat, inactive: -0.022. Also, the log2 fold change with citarinostat was inactive: -0.067; in the experiment with silmitasertib, inactive: 0.141; in experiment [5], inactive: 0.183; in [6], inactive: -0.187; in the experiment with entospletinib, inactive: 0.003.
Regarding SPC25 (UniProt Q9HBM1), the log2 fold change in experiment [1] was inactive: -0.034; in experiment [2], inactive: -0.008; in experiment [3], inactive: -0.086; in experiment [4] it was inactive: -0.073; in the experiment with entinostat, inactive: 0.003; with vorinostat, inactive: 0.022. Further, the log2 fold change with citarinostat was inactive: 0.119; in the experiment with silmitasertib, inactive: 0.059; in [5], inactive: -0.045; in experiment [6], inactive: 0.017; with entospletinib it was inactive: -0.032.
Turning to STK25 (UniProt O00506), the log2 fold change in experiment [1] is inactive: -0.029; in [2], inactive: -0.06; in experiment [3], inactive: -0.136; in experiment [4], inactive: -0.08; with entinostat, inactive: -0.016; with vorinostat, inactive: 0.042. The log2 fold change with citarinostat was inactive: -0.026; in the experiment with silmitasertib, inactive: 0.078; in experiment [5], inactive: -0.064; in [6], inactive: -0.034.
Take SRGN (UniProt P10124): the log2 fold change in experiment [1] was inactive: -0.097; in [2], inactive: 0.133; in experiment [3], inactive: 0.172; in experiment [4], inactive: 0.284; with entinostat, inactive: -0.026; with vorinostat, inactive: 0.019. The log2 fold change in the experiment with citarinostat is inactive: -0.035; in the experiment with silmitasertib, inactive: -0.009; in experiment [5], inactive: 0.085; in [6] it was inactive: -0.192; with entospletinib, inactive: 0.087.
SSBP1 (UniProt Q04837): the log2 fold change in experiment [1] is inactive: -0.037; in experiment [2] it was inactive: -0.013; in experiment [3] it was inactive: 0.024; in [4], inactive: 0.041; with entinostat, inactive: -0.028; with vorinostat, inactive: -0.054. In addition, the log2 fold change in the experiment with citarinostat was inactive: -0.021; in the experiment with silmitasertib, inactive: 0.019; in experiment [5] it was inactive: 0.028; in [6], inactive: -0.062; with entospletinib, inactive: 0.031.
For the target SSR1 (UniProt P43307), the log2 fold change in [1] was inactive: 0.002; in experiment [2] it was inactive: -0.037; in [3] it was inactive: -0.028; in [4] it was inactive: -0.047; with entinostat it was inactive: -0.013; in the experiment with vorinostat, inactive: -0.062. Further, the log2 fold change is inactive: 0.034 with citarinostat; inactive: -0.005 with silmitasertib; inactive: -0.051 in [5]; inactive: -0.016 in experiment [6]; inactive: 0.019 in the experiment with entospletinib.
In the case of SPPL2A (UniProt Q8TCT8), the log2 fold change in [1] is inactive: 0.032; in experiment [2], inactive: -0.027; in [3], inactive: -0.043; in [4], inactive: 0.021; with entinostat it was inactive: 0.012; in the experiment with vorinostat, inactive: 0.049. Further, the log2 fold change is inactive: 0.03 with citarinostat; inactive: 0 with silmitasertib; inactive: 0.115 in experiment [5]; inactive: -0.009 in experiment [6]; inactive: -0.04 with entospletinib.
